Experimental data: PubChem BioAssay AID504764 (Drosophila RNAi Screening Center, 2011)
The deposit covers about 22,000 reagents; shown is an unselected part of those that have a named target and a result. Of all reagents, 403 (1.9%) are marked active. 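Unnormalised raw counts per well; ratio z-scores behind the hit calls and whether each hit raises or lowers signal are not deposited.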 The record does not give: the amount of reagent.

Aim: 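Genes whose knock-down alters Notch-dependent transcription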 (primary screen)
Cells: Drosophila Kc167 cells
Reagent: long dsRNA against Drosophila genes
Duration: about 5 days (4 days dsRNA, then 24 h after transfection)
Conditions: transfection of constitutively active membrane-tethered Notch lacking the extracellular domain, read 24 h later
Read-out: 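Firefly luciferase from an E(spl)m3 reporter with active Notch, plus control-promoter and uninduced reporter wells for normalisation; unnormalised counts, duplicate wells a and b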
Reading the numbers: induced reporter light, run 1, well a and induced reporter light, run 1, well b: higher = more light from the Notch target reporter with active Notch; control promoter light, run 1, well a and control promoter light, run 1, well b: higher = more light from the viral control promoter (cell number, transfection, viability); uninduced reporter light, run 1, well a: higher = more light from the Notch target reporter without active Notch
Hit rule: 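Hit if the duplicate-averaged log2 ratio of induced to control-promoter light gives a plate-wise z beyond ±2, or induced to uninduced beyond ±1.8; weak-control or discordant-duplicate wells dropped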
Calls: active = modifier hit (raised or lowered Notch signal); inactive = not a hit

For Gr59a [DRSC21550], the values are inactive.
After knock-down of CG10089 [DRSC09694], the record shows induced reporter light, run 1, well a = 80815; induced reporter light, run 1, well b = 76470; control promoter light, run 1, well a = 85070; control promoter light, run 1, well b = 68035; uninduced reporter light, run 1, well a = 6475; inactive.
With knock-down of CG10089 [DRSC09695], the screen gave induced reporter light, run 1, well a = 2.23e5; induced reporter light, run 1, well b = 1.71e5; control promoter light, run 1, well a = 2.91e5; control promoter light, run 1, well b = 2.09e5; uninduced reporter light, run 1, well a = 15735; inactive.
For CG17826 [DRSC10289], the values are induced reporter light, run 1, well a = 1.36e5; induced reporter light, run 1, well b = 1.39e5; control promoter light, run 1, well a = 1.85e5; control promoter light, run 1, well b = 1.50e5; uninduced reporter light, run 1, well a = 6410; inactive.
With knock-down of Gpo3 [DRSC01978], the record shows induced reporter light, run 1, well a = 1.27e5; induced reporter light, run 1, well b = 1.41e5; control promoter light, run 1, well a = 1.59e5; control promoter light, run 1, well b = 1.66e5; uninduced reporter light, run 1, well a = 11630; inactive.
Against Lkr [DRSC09754], the values are induced reporter light, run 1, well a = 3.73e5; induced reporter light, run 1, well b = 3.04e5; control promoter light, run 1, well a = 4.28e5; control promoter light, run 1, well b = 4.30e5; uninduced reporter light, run 1, well a = 20985; inactive.
After knock-down of Tomosyn [DRSC19365], the screen gave induced reporter light, run 1, well a = 30705; induced reporter light, run 1, well b = 30185; control promoter light, run 1, well a = 38975; control promoter light, run 1, well b = 41640; uninduced reporter light, run 1, well a = 6815; inactive.
With knock-down of Tomosyn [DRSC19692] the results were induced reporter light, run 1, well a = 95710; induced reporter light, run 1, well b = 98840; control promoter light, run 1, well a = 1.33e5; control promoter light, run 1, well b = 1.64e5; uninduced reporter light, run 1, well a = 6040; inactive.
For Tomosyn [DRSC19782], the entry reads induced reporter light, run 1, well a = 1.20e5; induced reporter light, run 1, well b = 1.35e5; control promoter light, run 1, well a = 1.84e5; control promoter light, run 1, well b = 1.33e5; uninduced reporter light, run 1, well a = 9405; inactive.
For Tomosyn [DRSC19842], the entry reads induced reporter light, run 1, well a = 1.13e5; induced reporter light, run 1, well b = 1.17e5; control promoter light, run 1, well a = 1.96e5; control promoter light, run 1, well b = 1.71e5; uninduced reporter light, run 1, well a = 7985; inactive.
UbcE2M [DRSC10828] showed induced reporter light, run 1, well a = 1.22e5; induced reporter light, run 1, well b = 1.06e5; control promoter light, run 1, well a = 79035; control promoter light, run 1, well b = 84735; uninduced reporter light, run 1, well a = 12465; inactive.
Knock-down of His2Av [DRSC16702] resulted in: induced reporter light, run 1, well a = 1.12e5; induced reporter light, run 1, well b = 1.10e5; control promoter light, run 1, well a = 1.96e5; control promoter light, run 1, well b = 1.72e5; uninduced reporter light, run 1, well a = 8038; inactive.

A portion taken from the entries so far:
CG10089 [DRSC09694] → induced reporter light, run 1, well a = 80815; induced reporter light, run 1, well b = 76470; control promoter light, run 1, well a = 85070; control promoter light, run 1, well b = 68035; uninduced reporter light, run 1, well a = 6475; Outcome = inactive
CG10089 [DRSC09695] → induced reporter light, run 1, well a = 2.23e5; induced reporter light, run 1, well b = 1.71e5; control promoter light, run 1, well a = 2.91e5; control promoter light, run 1, well b = 2.09e5; uninduced reporter light, run 1, well a = 15735; Outcome = inactive
